{"source": "patent US20030055003A1", "about": "“Use of copper chelators to inhibit the inactivation of protein C” (priority 2001, published 2003)", "origin": "cited, not measured here", "details": "in vivo; cited from earlier work", "note": "At least one structure is not confirmed: it was looked up by name or label, or the drawing left a doubt."}
{"smiles": "CC(=O)N(O)CCCCCNC(=O)CCC(=O)N(O)CCCCCNC(=O)CCC(=O)N(O)CCCCCN", "note": "[Deferoxamine]", "values": [{"measurement": "effect in animal models of sepsis", "result": "beneficial"}]}
